Experimental data: PubChem BioAssay AID1224829 (NIAID, 2016)
Purpose: 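Secondary check of hits that alter LPS-induced p65 translocation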 (follow-up of hits). System: mouse RAW264.7 G9 macrophage reporter cells. Reagents: single siRNA against mouse genes, 100 nM. Time to read-out: 2 days of siRNA knock-down, then 40 min of LPS before fixing. Conditions: LPS (Salmonella minnesota R595) at 10 ng/ml. Detection: 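High-content images after 40 min LPS exposure; GFP-p65 nucleus to surrounding ring signal ratio, normalised to plate median and non-targeting control wells, expressed as z-score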. Direction: p65 translocation z-score and gene median z-score, per vendor: higher = more nuclear NF-kappaB p65 after LPS. Hit rule: 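An siRNA is called active when the mean z-score of its two replicates is above 2 or below -2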. Meaning of the calls: active = changed p65 translocation (either direction); inactive = no clear change.
The deposit covers about 3,800 reagents; this is a random part of them. 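Calls cover raised and lowered translocation; gene median uses one vendor's three siRNAs; qiagen siRNAs acted more weakly than ambion siRNAs.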

no.	gene symbol	PubChem SID	siRNA vendor or control pool	p65 translocation z-score, replicate mean	p65 translocation z-score, replicate 1	p65 translocation z-score, replicate 2	gene median z-score, per vendor	outcome
1	Stmn3 (stathmin-like 3)	SID315484848	ambion single siRNA	0.604	1.07	0.137	-0.0286	inactive
2	Stmn3 (stathmin-like 3)	SID315484849	ambion single siRNA	0.806	1.81	-0.194	-0.0286	inactive
3	Stmn3 (stathmin-like 3)	SID315484850	ambion single siRNA	-2.39	-2.52	-2.25	-0.0286	active
4	Stmn3 (stathmin-like 3)	SID315484851	qiagen single siRNA	-0.478	-1.4	0.448	-0.118	inactive
5	Stmn3 (stathmin-like 3)	SID315484852	qiagen single siRNA	0.863	0.487	1.24	-0.118	inactive
6	Stmn3 (stathmin-like 3)	SID315484853	qiagen single siRNA	-3.23	-0.684	-5.78	-0.118	active
7	Fbxl22 (F-box and leucine-rich repeat protein 22)	SID315486783	ambion single siRNA	-2.91	-3.69	-2.13	-2.82	active
8	Fbxl22 (F-box and leucine-rich repeat protein 22)	SID315486784	ambion single siRNA	-4.52	-5.54	-3.5	-2.82	active
9	Fbxl22 (F-box and leucine-rich repeat protein 22)	SID315486785	ambion single siRNA	0.854	0.633	1.07	-2.82	inactive
10	Fbxl22 (F-box and leucine-rich repeat protein 22)	SID315486786	qiagen single siRNA	-2.03	0.26	-4.32	-0.0769	active
11	Fbxl22 (F-box and leucine-rich repeat protein 22)	SID315486787	qiagen single siRNA	0.114	-0.737	0.965	-0.0769	inactive
12	Fbxl22 (F-box and leucine-rich repeat protein 22)	SID315486788	qiagen single siRNA	0.473	-0.414	1.36	-0.0769	inactive
13	P2ry4 (pyrimidinergic receptor P2Y, G-protein coupled, 4)	SID315486063	ambion single siRNA	0.107	-0.277	0.49	0.421	inactive
14	P2ry4 (pyrimidinergic receptor P2Y, G-protein coupled, 4)	SID315486064	ambion single siRNA	0.694	0.352	1.04	0.421	inactive
15	P2ry4 (pyrimidinergic receptor P2Y, G-protein coupled, 4)	SID315486065	ambion single siRNA				0.421	inactive
16	P2ry4 (pyrimidinergic receptor P2Y, G-protein coupled, 4)	SID315486066	qiagen single siRNA	0.909	1.02	0.801	-2.33	inactive
17	P2ry4 (pyrimidinergic receptor P2Y, G-protein coupled, 4)	SID315486067	qiagen single siRNA	-2.56	-2.33	-2.79	-2.33	active
18	P2ry4 (pyrimidinergic receptor P2Y, G-protein coupled, 4)	SID315486068	qiagen single siRNA	-2.81	-2.32	-3.3	-2.33	active
19	Grpel2 (GrpE-like 2, mitochondrial)	SID315484536	ambion single siRNA	0.467	0.375	0.559	0.242	inactive
20	Grpel2 (GrpE-like 2, mitochondrial)	SID315484537	ambion single siRNA	0.242	0.207	0.277	0.242	inactive
21	Grpel2 (GrpE-like 2, mitochondrial)	SID315484538	ambion single siRNA	-1.33	-1.69	-0.956	0.242	inactive
22	Grpel2 (GrpE-like 2, mitochondrial)	SID315484539	qiagen single siRNA	1.34	0.494	2.19	1.49	inactive
23	Grpel2 (GrpE-like 2, mitochondrial)	SID315484540	qiagen single siRNA	0.999	-0.148	2.15	1.49	inactive
24	Grpel2 (GrpE-like 2, mitochondrial)	SID315484541	qiagen single siRNA	1.49	1.18	1.81	1.49	inactive
25	Hoxa2 (homeobox A2)	SID315484329	ambion single siRNA				-4.5	inactive
26	Hoxa2 (homeobox A2)	SID315484330	ambion single siRNA	-3.38	-2.2	-4.56	-4.5	active
27	Hoxa2 (homeobox A2)	SID315484331	ambion single siRNA	-5.69	-6.94	-4.44	-4.5	active
28	Hoxa2 (homeobox A2)	SID315484332	qiagen single siRNA	0.455	0.619	0.29	-1.99	inactive
29	Hoxa2 (homeobox A2)	SID315484333	qiagen single siRNA	-0.699	-4.39	2.99	-1.99	inactive
30	Hoxa2 (homeobox A2)	SID315484334	qiagen single siRNA	-5.11	-4.27	-5.95	-1.99	active
31	Lmcd1 (LIM and cysteine-rich domains 1)	SID315485493	ambion single siRNA	1.16	0.79	1.52	-1.18	inactive
32	Lmcd1 (LIM and cysteine-rich domains 1)	SID315485494	ambion single siRNA	-1.18	-1.36	-0.995	-1.18	inactive
33	Lmcd1 (LIM and cysteine-rich domains 1)	SID315485495	ambion single siRNA	-4.86	-4.87	-4.85	-1.18	active
34	Lmcd1 (LIM and cysteine-rich domains 1)	SID315485496	qiagen single siRNA	2.58	1.9	3.25	0.453	active
35	Lmcd1 (LIM and cysteine-rich domains 1)	SID315485497	qiagen single siRNA	-1.27	-0.557	-1.99	0.453	inactive
36	Lmcd1 (LIM and cysteine-rich domains 1)	SID315485498	qiagen single siRNA	0.199	-1.06	1.46	0.453	inactive
37	Trhr (thyrotropin releasing hormone receptor)	SID315485040	ambion single siRNA	1.51	2.46	0.554	-2.47	inactive
38	Trhr (thyrotropin releasing hormone receptor)	SID315485041	ambion single siRNA	-3.77	-4.57	-2.97	-2.47	active
39	Trhr (thyrotropin releasing hormone receptor)	SID315485042	ambion single siRNA	-3.76	-1.97	-5.55	-2.47	active
40	Trhr (thyrotropin releasing hormone receptor)	SID315485043	qiagen single siRNA	0.486	0.469	0.504	-0.767	inactive
41	Trhr (thyrotropin releasing hormone receptor)	SID315485044	qiagen single siRNA	-2.37	-1.43	-3.31	-0.767	active
42	Trhr (thyrotropin releasing hormone receptor)	SID315485045	qiagen single siRNA	-0.767	-0.38	-1.15	-0.767	inactive
43	Htra3 (HtrA serine peptidase 3)	SID315486879	ambion single siRNA	-8.12	-8.27	-7.97	-6.04	active
44	Htra3 (HtrA serine peptidase 3)	SID315486880	ambion single siRNA	-4.72	-6.02	-3.41	-6.04	active
45	Htra3 (HtrA serine peptidase 3)	SID315486881	ambion single siRNA	-5.72	-6.06	-5.38	-6.04	active
46	Htra3 (HtrA serine peptidase 3)	SID315486882	qiagen single siRNA	0.933	0.578	1.29	-1.43	inactive
47	Htra3 (HtrA serine peptidase 3)	SID315486883	qiagen single siRNA	-1.76	-1.43	-2.09	-1.43	inactive
48	Htra3 (HtrA serine peptidase 3)	SID315486884	qiagen single siRNA	-8.26	-8.26		-1.43	active
49	Rlim (ring finger protein, LIM domain interacting)	SID315484794	ambion single siRNA	-0.57	-0.169	-0.97	-2.55	inactive
50	Rlim (ring finger protein, LIM domain interacting)	SID315484795	ambion single siRNA	-2.55	-1.99	-3.11	-2.55	active
51	Rlim (ring finger protein, LIM domain interacting)	SID315484796	ambion single siRNA	-4.87	-4.92	-4.81	-2.55	active
52	Rlim (ring finger protein, LIM domain interacting)	SID315484797	qiagen single siRNA	2.12	0.592	3.65	0.897	active
53	Rlim (ring finger protein, LIM domain interacting)	SID315484798	qiagen single siRNA	1.29	1.2	1.38	0.897	inactive
54	Rlim (ring finger protein, LIM domain interacting)	SID315484799	qiagen single siRNA	0.0416	-0.25	0.334	0.897	inactive

An excerpt from above, limited to “p65 translocation z-score, replicate 1”:
Grpel2 (GrpE-like 2, mitochondrial) [SID315484536], siRNA vendor or control pool ambion single siRNA = 0.375
Grpel2 (GrpE-like 2, mitochondrial) [SID315484537], siRNA vendor or control pool ambion single siRNA = 0.207
Grpel2 (GrpE-like 2, mitochondrial) [SID315484538], siRNA vendor or control pool ambion single siRNA = -1.69
Grpel2 (GrpE-like 2, mitochondrial) [SID315484539], siRNA vendor or control pool qiagen single siRNA = 0.494
Grpel2 (GrpE-like 2, mitochondrial) [SID315484540], siRNA vendor or control pool qiagen single siRNA = -0.148
